The values below come from paper PMC9342608, “The OsEIL1‐OsERF115‐target gene regulatory module controls grain size and weight in rice”.

For at least one entry, the source does not settle the construct or the ends of the probe.

For this data set, the system named is MBP-OsERF115 (Oryza sativa (japonica cv. Nipponbare)). Description: EMSA. To be noted: EMSA/Gel-Shift Binding Buffer (Beyotime GS005), 30 min at room temperature, 6% native PAGE; salt and pH not stated; recombinant protein; protein details: MBP, Ni-NTA purified (pMCSG7); label: 5' biotin on strand 1.

Regarding “GAGGTATTGTTGGGATTCGCCGCCTGCTGCTCGTCGTCGTCG (double strand) [OsGS6 probe (GCC box)]”, the binding result is given as “binds”.

Consider “GTATGTATCTACGGTGAGGCGGCGGCGGCGGAGGAGGAGGAGGA (double strand) [OsGW2 probe (GCC box)]”, for which the binding result is on record as “binds”.
